# Assay results reported in PubChem BioAssay AID588590 (National Center for Advancing Translational Sciences (NCATS), 2011).
# The chains behind the UniProt entries cited, without tags or fusion partners. Where a name states a change or a piece, a line headed by the entry shows the natural chain unless it says otherwise.
# UniProt Q9UNA4: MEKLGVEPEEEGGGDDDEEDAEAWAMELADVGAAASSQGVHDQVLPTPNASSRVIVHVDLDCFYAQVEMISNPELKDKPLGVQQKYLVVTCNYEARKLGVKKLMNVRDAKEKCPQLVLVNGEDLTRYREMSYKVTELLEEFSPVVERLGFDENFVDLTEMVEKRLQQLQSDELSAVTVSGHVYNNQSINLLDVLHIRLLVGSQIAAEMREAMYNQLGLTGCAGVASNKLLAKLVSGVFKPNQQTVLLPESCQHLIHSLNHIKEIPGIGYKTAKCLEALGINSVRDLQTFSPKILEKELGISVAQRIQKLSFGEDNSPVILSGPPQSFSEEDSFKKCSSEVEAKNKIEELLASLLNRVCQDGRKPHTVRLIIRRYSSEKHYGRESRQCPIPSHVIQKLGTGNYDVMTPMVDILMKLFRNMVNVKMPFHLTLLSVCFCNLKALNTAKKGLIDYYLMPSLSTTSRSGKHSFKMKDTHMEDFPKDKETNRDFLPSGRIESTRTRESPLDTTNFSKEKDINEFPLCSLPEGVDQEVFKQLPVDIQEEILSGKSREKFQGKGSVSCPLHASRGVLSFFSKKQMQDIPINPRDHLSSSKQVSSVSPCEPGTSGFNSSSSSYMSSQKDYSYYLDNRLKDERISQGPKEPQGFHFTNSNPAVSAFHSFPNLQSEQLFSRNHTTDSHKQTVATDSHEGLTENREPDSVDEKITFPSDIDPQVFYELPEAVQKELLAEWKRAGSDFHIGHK
# The whole screen tested about 390,000 compounds, of which about 4,000 (1%) were called active. The shares of active, inactive and inconclusive entries below differ from those in the screen. Calls follow the shape of the dose curve; as a rule, active = well fitted inhibition curve with a large enough effect; inconclusive = small, poorly fitted or top-dose-only effect, or another doubt; inactive = no such curve, though single readings can be large or run the other way. A potency beside an inconclusive call is a rough fit, not a confirmed value.
# Biological target: DNA polymerase iota (Homo sapiens) (UniProt Q9UNA4)
# Test: qHTS for Inhibitors of Polymerase Iota
# Settings: Pol iota fluorescent replication assay, 10 min; series mostly up to 115 µM; activity, negative = inhibition: at the top concentration
# In short: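 Fluorescent replication assay read twice, at 0 min and 10 min after adding 50 nM (final) substrate. Enzyme (10 nM) and compounds were first incubated 15 min at room temperature; enzyme-free buffer wells were negative controls.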
# Potency is read from the fitted curve at half-maximal effect.
SMILES,Potency,"activity, negative = inhibition"
N#Cc1ccccc1NC(=O)CN(Cc1ccccc1)Cc1ccccc1,"inconclusive: 89.1 µM [inhibitor, single point]",–
Cc1nc(NC2=NCN(CCCN3CCOCC3)CN2)nc2c(C)cccc12,"inconclusive: 89.1 µM [inhibitor, single point]",–
COCCNC(=O)c1cc2c(-c3ccc(Cl)cc3)nn(C)c2s1,"inconclusive: 79.4 µM [inhibitor, single point]",–
FC(F)(F)c1nc(Oc2ccccc2)c2ccccc2n1,–,inactive: -6.31%
O=[N+]([O-])c1ccc(/C=N/Nc2ccc3ccccc3c2)o1,"inconclusive: 3.16 µM [inhibitor, full curve, poor fit]",–
O=C(O)Cc1c(-c2ccccc2)c2cc(Br)ccc2[nH]c1=O,"inconclusive: 3.55 µM [inhibitor, partial curve, poor fit]",–
O=C(Nc1nnc(C2CC2)s1)C1CC(=O)N(c2ccc3c(c2)OCCO3)C1 (configuration not stated),active: 44.7 µM,–
Cc1nc([N+](=O)[O-])c(Br)n1CC(=O)c1ccc(Cl)cc1,"inconclusive: 14.1 µM [inhibitor, full curve, poor fit]",–
CCOC(=O)N1CCN(C(=O)CNCc2cccs2)CC1,"inconclusive: 39.8 µM [inhibitor, single point]",–
Cc1ccc2c(c1)Cc1nc3ccccc3nc1-2,"inconclusive: 79.4 µM [inhibitor, partial curve]",–
COCCN(CCOC)S(=O)(=O)c1ccc(C(=O)Nc2nnc(CSC)o2)cc1,"inconclusive: 12.6 µM [inhibitor, partial curve, poor fit]",–
COc1ccc(C(=O)O/N=C(/C)c2cccs2)cc1,–,inactive: 2.56%
CCOC(=O)N1CCN(S(=O)(=O)c2ccc(C(=O)N(CCN(C)C)c3nc4ccc(Cl)cc4s3)cc2)CC1,"inconclusive: 63.1 µM [inhibitor, partial curve, poor fit]",–
CCCCCCc1c(C)c2c(cc(C)c3c(C)c(C)oc32)oc1=O,"inconclusive: 70.8 µM [inhibitor, partial curve, poor fit]",–
O=C(CC(NS(=O)(=O)c1ccc(Cl)cc1)c1ccco1)NCc1ccco1 (configuration not stated),"inconclusive: 12.6 µM [inhibitor, full curve, poor fit]",–
Cc1cc(C(=O)CSc2nnc(N)s2)c(C)n1-c1c(C)n(C)n(-c2ccccc2)c1=O,"inconclusive: 112 µM [inhibitor, partial curve, poor fit]",–
CCN1CCN(c2ccc(S(=O)(=O)N3CCOCC3)cc2NC(=O)c2ccc(C)cc2C)CC1,"inconclusive: 35.5 µM [inhibitor, full curve]",–
COCc1cc(S(=O)c2ccc(Cl)cc2)nc(C)n1 (configuration not stated),"inconclusive: 10 µM [inhibitor, partial curve, poor fit]",–
Nc1nc2c(nnn2Cc2ccc(Cl)c(Cl)c2)c(=O)[nH]1,"inconclusive: 17.8 µM [inhibitor, partial curve, poor fit]",–
COc1ccc(OC)c(CNC(=O)c2ccc(Sc3ccc(Cl)cc3)c(NC(C)=O)c2)c1,"inconclusive: 4.47 µM [inhibitor, full curve, poor fit]",–
O=C(NC1CCCCC1)c1ccc(CSc2nc3ccncc3n2Cc2ccccc2)cc1,–,inactive: 18.1%
CC(C)Cn1c(=O)c(C(=O)Nc2ccccc2S(N)(=O)=O)c(O)c2ccccc21,"inconclusive: 39.8 µM [inhibitor, full curve]",–
Cc1ccn2c(=O)nc(SCC(=O)NCc3ccc(F)cc3)nc2c1,"inconclusive: 31.6 µM [inhibitor, single point]",–

SMILES,Potency,"activity, negative = inhibition"
CC(C)COc1ccc(-c2nnc(-c3ccncc3)o2)cc1,"inconclusive: 89.1 µM [inhibitor, partial curve, poor fit]",–
Cc1ccc(S(=O)(=O)N2[C@@H](c3ccc(Br)cc3)C(C(=O)O)=CC[C@H]2c2ccc(C(C)C)cc2)cc1,"inconclusive: 1.26 µM [inhibitor, full curve, poor fit]",–
Cc1ccc(-n2ncc(C(=O)N3CCN(C4CCCCC4)CC3)c2C2CCN(C(=O)OC(C)(C)C)CC2)cc1C,–,inactive: 19.4%
Cc1cc(C)c(C#N)c(SCC2COc3ccccc3O2)n1 (configuration not stated),"inconclusive: 14.1 µM [inhibitor, partial curve]",–
Oc1c(Cl)cc(Cl)cc1C=Nc1ccc(N2CCOCC2)cc1,–,inactive: 174%
O=C(Nc1cccc(C(=O)O)c1)Nc1cccc2ccccc12,–,inactive: 41.6%
CN(CC(=O)Nc1cccc(F)c1)C(=O)C1CCN(S(=O)(=O)c2ccc3c(c2)OCCO3)CC1,–,inactive: 9.59%
CN(C)C1=C2C=CC=CC2/C(=C2/C=Cc3ccccc32)C=C1 (configuration not stated),–,inactive: 48.7%
CCOc1ccc(NC(=O)C2CCCN(c3nn4cc(-c5ccc(OC)cc5)nc4s3)C2)cc1 (configuration not stated),–,inactive: 9.28%
c1ccc(C(Cc2nc(-c3cccnc3)no2)c2ccccc2)cc1,"inconclusive: 11.2 µM [inhibitor, single point]",–
O=C(c1ccc2c(=O)n(Cc3ccccc3)c(=S)[nH]c2c1)N1CCOCC1,"inconclusive: 79.4 µM [inhibitor, single point]",–
COc1ccc(C(=O)C[n+]2cccc3cc(Cl)ccc32)cc1,"inconclusive: 89.1 µM [inhibitor, single point]",–
O=c1c2ccccc2sc2c(CO)ccc(NCCN3CCCCC3)c12,"inconclusive: 89.1 µM [inhibitor, partial curve]",–
CCOc1ccc(NC(=O)CC2C(=O)N(c3ccc(F)cc3)C(=O)N2CCc2sccc2C)cc1 (configuration not stated),–,inactive: 14.4%
CCC(=O)N1CCc2cc(Br)cc(S(=O)(=O)CCC(=O)N(C)c3cccc(C)c3)c21,–,inactive: 6.57%
COc1ccc(/C=C/C(=O)N2CCC(c3ccccc3)C2)cc1 (configuration not stated),"inconclusive: 112 µM [inhibitor, partial curve, poor fit]",–
O=C(COC(=O)c1ccc(OC(F)(F)F)cc1)Nc1ncccn1,"inconclusive: 56.2 µM [inhibitor, partial curve, poor fit]",–
O=[N+]([O-])c1ccc(N2CCN(S(=O)(=O)c3ccc(Cl)cc3)CC2)cc1NCc1cccnc1,"inconclusive: 31.6 µM [inhibitor, single point]",–
O=C(O)CCc1ccc2ccccc2c1,"inconclusive: 89.1 µM [inhibitor, single point]",–
CCN(CC)CCCNS(=O)(=O)c1ccc(OC)cc1,"inconclusive: 89.1 µM [inhibitor, full curve]",–
CCOCCCNCc1ccc(OC)c(OC)c1,"inconclusive: 3.55 µM [inhibitor, partial curve, poor fit]",–
Cc1ccc(Cl)cc1N1CCN(C(=O)CN2C(=O)COc3ccc(S(=O)(=O)N4CCC(C)CC4)cc32)CC1,–,inactive: 27.5%
Cc1ccccc1OCCC(=O)OCC(=O)NNC(=O)c1cccs1,–,inactive: -1.13%

SMILES,Potency,"activity, negative = inhibition"
CCOC(=O)c1cc(S(=O)(=O)NC2CCN(C(=O)OCC)CC2)cn1C,"inconclusive: 12.6 µM [inhibitor, partial curve, poor fit]",–
Nc1ncnc2c1ncn2COC(CO)CO,"inconclusive: 35.5 µM [inhibitor, single point]",–
CCOC(=O)CSc1nc(=O)n2cc(C)ccc2n1,–,inactive: 103%
O=C(c1cc(COc2ccc(F)cc2Cl)on1)N1CCCCCC1,"inconclusive: 56.2 µM [inhibitor, partial curve]",–
CCOC(=O)C1CCN(c2ncnc3c(C)csc23)CC1,"inconclusive: 89.1 µM [inhibitor, partial curve, poor fit]",–
Cc1c(CC(=O)N2CCCCC2)c(=O)oc2cc3occ(C(C)(C)C)c3cc12,–,inactive: -0.124%
CC(O)(c1cccs1)C(C(=O)O)c1ccccc1 (configuration not stated),"inconclusive: 89.1 µM [inhibitor, partial curve, poor fit]",–
CN1CCN(C(c2ccc(Cl)cc2Cl)c2sc3nc(-c4ccco4)nn3c2O)CC1 (configuration not stated),–,inactive: 19.1%
CCN(C(=O)COC(=O)CNC(=O)c1ccc2ccccc2c1)c1c(N)n(Cc2ccccc2)c(=O)[nH]c1=O,–,inactive: 8.27%
Cc1cccc(N=C2NC(=O)/C(=C/c3cccn3C)S2)c1,–,inactive: -15.5%
CCOC(=O)c1cc(-c2ccc(F)cc2)n(CC(=O)Nc2nccs2)c1C,"inconclusive: 12.6 µM [inhibitor, partial curve, poor fit]",–
Fc1ccc(-c2cc(-c3nc(-c4ccccc4)no3)[nH]n2)cc1,–,inactive: -19.5%
CC(c1ccc(F)cc1)n1cc(C(=O)NCc2ccccn2)nn1 (configuration not stated),"inconclusive: 79.4 µM [inhibitor, single point]",–
COc1cc(/C=C/C(=O)O)cc(S(=O)(=O)Nc2cc(Cl)c(Cl)cc2Cl)c1OC,"inconclusive: 63.1 µM [inhibitor, partial curve, poor fit]",–
Nc1nc(N)c(N=Nc2ccc(SCC(=O)O)cc2)c(=O)[nH]1,"inconclusive: 10 µM [inhibitor, full curve, poor fit]",–
CC(C)Cn1cc(NC(=O)NCc2ccccc2)c2ccccc2c1=O,"inconclusive: 20 µM [inhibitor, full curve]",–
COc1ccccc1OCC(=O)Nc1nnc(-c2ccco2)s1,"inconclusive: 79.4 µM [inhibitor, partial curve]",–
Cc1ccccc1CNC(=O)c1cccc(NC(=O)c2nsc3ccccc23)c1,"inconclusive: 100 µM [inhibitor, single point]",–
CCCCC(CC)C(=O)Nc1ccc(S(=O)(=O)Nc2nccs2)cc1 (configuration not stated),"inconclusive: 100 µM [inhibitor, partial curve, poor fit]",–
O=C(/C=C/c1ccc(F)cc1)c1cc(Br)ccc1O,–,inactive: 59.2%
Cc1ccc(CNC(=O)c2cc3c(s2)CN(Cc2ccccc2)C3)cc1,"inconclusive: 25.1 µM [inhibitor, partial curve, poor fit]",–

# A different layout for some results above.
SMILES	Potency	activity, negative = inhibition
Cc1c(CC(=O)N2CCCCC2)c(=O)oc2cc3occ(C(C)(C)C)c3cc12	–	inactive: -0.124%
CC(O)(c1cccs1)C(C(=O)O)c1ccccc1 (configuration not stated)	inconclusive: 89.1 µM [inhibitor, partial curve, poor fit]	–
CN1CCN(C(c2ccc(Cl)cc2Cl)c2sc3nc(-c4ccco4)nn3c2O)CC1 (configuration not stated)	–	inactive: 19.1%
